Assay results as given in PMC10163288.
This is one part of the list.

B1: il10ra_site1_sap_22_mot_HHH_b2_07873_af2_000000172_0001_1_19_H_._HHH_b1_02227_af2_0001_0000300012_0000002_0_0001_af2pred_0001 (protein)
chain: SSSSNAAEHLVELAIEAAKLALEAGDPELARRALEIAELLAQQANNPELEEEVRELLEELSSSSS
B2: il10ra_site1_normal_mot_HHH_b2_00273_000000062_0001_23_39_H_._HHH_b2_06634_af2_0001_0000100003_0000001_0 (protein)
chain: SSSSDEEEEEVRELLERAEELIERGNPEEALRLLMEAIRVAFRGSDPELIEAIWKVARKLLSSSS
B3: il10ra_site1_normal_mot_HHH_b1_02997_000000220_0001_39_52_H_._HHH_b1_01787_0001_0000100005_0000001_0 (protein)
chain: SSSSSSSEELFELSRLVAELLFEGNEEEARRVIEEAKELAEEAGNLNFLWNIEYLERQVNSSSSS
B4: il10ra_site1_normal_mot_HHH_b2_07521_000000141_0001_20_37_H_._HHH_b1_01333_0001_0000300010_0000001_1_af2pred_0001 (protein)
chain: SSSSSDEEARRAIRLSIKAAKQIDDPERARLTLRDALASARFLGDEELQEEIERLLEEVNSSSSS
B5: il10ra_site1_sap_23_mot_HHH_b1_02809_af2_000000277_0001_40_57_H_._HHH_b1_05790_af2_0001_0000500027_0000001_0_0001 (protein)
chain: SSSSDERYEEIKRALQEVLEAVRNGDEELFEELFEEAREIIEKTNTISAKFALEQARAALGSSSS
B6: il10ra_site1_normal_mot_HHH_b2_06857_af2_000000179_0001_42_54_H_._76fe7993c3ad9ffb2b2ee76f24d0ea53_0001_0001_0000300015_0000001_0 (protein)
chain: SLEEKLEEIKKLGVPPLVVEQFKFAFRRQREAGIPPEEVLEYLEEVAKRANNPRLEEVIKLVAET
B7: il10ra_site1_sap_14_mot_b26a303360aa2756ef5b79665ce52f45_0001_000000179_0001_1_11_H_._HHH_b1_03361_af2_0001_0000100001_0000001_1_0001 (protein)
chain: SSSSSDEEIKERVEELLEEAEEIPDRHEALRLLIEALRLAFQAGDPELLQLIWRVAKELESSSSS
B8: il10ra_site1_normal_mot_HHH_b1_02492_000000051_0001_1_21_H_._HHH_b2_07864_af2_0001_0000300025_0000001_1 (protein)
chain: SSSSNEEYDELYELLRELIELVREGDEEEFERLLKEVKELAEELNDFATRFVVRLLERDLTSSSS
B9: il10ra_site1_sap_27_mot_HHH_b2_06090_af2_000000001_0001_1_19_H_._HHH_b1_07370_af2_0001_0000200015_0000001_0_0001_af2pred_0001 (protein)
chain: SSSSSSSELEQRVRALLFFAELATNPEARKLALEIAERLAEENNNEELEELVKEVQEKLSSSSSS
B10: il10ra_site1_normal_mot_HHH_b2_02053_af2_000000006_0001_3_19_H_._HHH_b1_08287_0001_0000100005_0000001_0 (protein)
chain: SSSSTEETEELYELLRELLELVFEGNEEEFERVVEEIHRLAEEGNNFIFLFSLREAEKSFNSSSS
B11: il10ra_site1_sap_21_mot_HHH_b1_07478_000000026_0001_21_37_H_._HHH_b1_05924_0001_0000500028_0000001_0_0001 (protein)
chain: SSSNAERSIERMLEAVKDLLKQGDREYAKLALRFLEHEIRWLGDEELEEILEELKELLEELSSSS
B12: il10ra_site1_normal_mot_HHH_b2_07521_000000141_0001_20_37_H_._HHH_b1_00233_af2_0001_0000400029_0000002_0 (protein)
chain: SSSSDEYVELSLRFAKQLVESGDPEAAERIAHAALQLAERNNDPELAEELEELLEEIRRRSSSSS
B13: il10ra_site1_sap_22_mot_8756ee2cf497b5429c717dfc0c0bcfd6_0001_000000186_0001_1_13_H_._HHH_b2_02097_0001_0000100003_0000002_0_0001_af2pred_0001 (protein)
chain: SSSSSVEHALKALKELAEKNNDEELKELIEEIEEYLEEHKDPHEAAELLIRIAVEAHRRRGSSSS
B14: il10ra_site1_normal_mot_2c1a291787c6f40772924d4e9068d803_0001_af2_000000222_0001_34_48_H_._9b26dc113238adff5f86db8059051cee_0001_0001_0000200002_0000002_0_af2pr … (protein)
chain: SPALEEVIALARAGELLEAAHLLARLLREAQAAKDAERQRALFEILVLLHRGELEKAEELARKLS
B15: il10ra_site1_sap_20_mot_b26a303360aa2756ef5b79665ce52f45_0001_000000179_0001_1_11_H_._HHH_b2_00074_0001_0000400020_0000002_0_0001_af2pred_dldesign_0_af2pred (protein)
chain: DEREALLRRIGTARRAALAAGDLEAAEALYNLAVELLRNPDPNDAAALAEAAARTDALAAAAAAS
B16: il10ra_site1_normal_mot_HHH_b2_06857_af2_000000179_0001_42_54_H_._HHH_b2_00081_af2_0001_0000100003_0000001_0 (protein)
chain: SSSSDEAVQEVYRLIREAAEALQSGNPEEAEEILEEARRLAEEANNELLRIQVEFLLRLIDSSSS
B17: il10ra_site1_normal_mot_HHH_b1_02997_000000220_0001_39_52_H_._HHH_b1_04704_0001_0000100005_0000003_0_af2pred_0001 (protein)
chain: SSSSSKEAERAQKLAREAIEARQHGDEELVEELLEEALRLAEEGNNELLQLIIKFILEDLNSSSS
B18: il10ra_site1_normal_mot_HHH_b1_07641_af2_000000285_0001_1_21_H_._HHH_b1_07021_af2_0001_0000200011_0000001_0_af2pred_0001 (protein)
chain: SSSSTEELREVIKLLREVAQLLEEGNPEEARKVLEEAKELAEEIGNETLRFIIEFLERLLSSSSS
B19: il10ra_site1_normal_mot_HHH_b2_04251_af2_000000037_0001_42_56_H_._HHH_b1_07770_0001_0000400020_0000001_0 (protein)
chain: SSSSSDEEVRELIEEAKELLERGDPEEALKVLQEASRFAIELNDPELTRLVIEVARLLDSSSSSS
B20: il10ra_site1_normal_mot_HHH_b2_03495_af2_000000088_0001_20_36_H_._HHH_b2_06881_af2_0001_0000100005_0000001_0 (protein)
chain: SSSSSEEEEEVRELLEEAKHIDDPREAAQVLLEATHLAWELGDEELLQLVHEVAEEVRKRASSSS
B21: il10ra_site1_normal_mot_HHH_b1_00999_000000080_0001_41_55_H_._HHH_b2_00276_0001_0000200011_0000001_0 (protein)
chain: SSSSSEEFEERIRELLEEAEQTEDPEERIRLILEALRLAYEVNNPELLQEVWEVAKRLGEGSSSS
B22: il10ra_site1_normal_mot_8756ee2cf497b5429c717dfc0c0bcfd6_0001_000000186_0001_1_13_H_._HHH_b2_00783_af2_0001_0000500025_0000001_0_af2pred_0001 (protein)
chain: SSSSTEEIRELLKLLREAAELLSDGNPEEAEEVLKEAEELAKELGDETVKVIIEFLKEQVRSSSS
B23: il10ra_site1_normal_mot_HHH_b1_00783_000000006_0001_19_35_H_._HHH_b2_01165_0001_0000200024_0000002_0 (protein)
chain: SSSSDEEEAREVLEHYEELLEEVAKKDAQKAFEALEEAIRLLLRLGDDEAAREISRFFVRLSSSS
B24: il10ra_site1_sap_15_mot_HHH_b2_05532_000000217_0001_1_18_H_._HHH_b2_05602_0001_0000100004_0000002_0_0001_af2pred_0001 (protein)
chain: SSSSDVEELLEEAEELAREGNPEEALEVLIEAFSEAWHLNDPELREEVAKLIREVARALRSSSSS

Target: il10ra, Q13651
Test: yeast display titration

Apparent Kd, inactive:
B1 no binding seen, B2 no binding seen, B3 no binding seen, B4 no binding seen, B5 no binding seen, B6 no binding seen, B7 no binding seen, B8 > 315 nM, B9 no binding seen, B10 no binding seen, B11 no binding seen, B12 no binding seen, B13 no binding seen, B14 > 3860 nM, B15 no binding seen, B16 no binding seen, B17 no binding seen, B18 no binding seen, B19 no binding seen, B20 no binding seen, B21 no binding seen, B22 no binding seen, B23 no binding seen, B24 no binding seen
